Measured data: PubChem BioAssay AID1259405 (NCATS, 2018)
The deposit covers about 50,000 reagents; this is a part drawn at random. In the full data, about 4,000 (8%) got an active call. 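Mouse siRNA library applied to hamster cells; one well for each siRNA.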 Entries without a mark were called inactive. Reagent sequences are not shown.

Purpose: 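Mouse-designed siRNAs used to find CHO productivity engineering targets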 (primary screen)
Cells: Chinese hamster CHO-K1 ovary cells with stable secreted eGFP expression
Reagent: single siRNA against mouse genes, 0.8 pmol siRNA per well (2 µl of 400 nM stock)
Time to read-out: 3 days
Measurement: 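Percent of the per-plate non-targeting control median for intracellular GFP per well by laser scanning cytometry and for cell viability by ATP luminescence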
Scale: GFP, % of control: higher = more GFP per well, higher productivity; viability (ATP), % of control: higher = more viable cells (more ATP)
Active means: 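Called active when intracellular GFP, relative to negative control, is at or above 120%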

Or5p67 (olfactory receptor family 5 subfamily P member 67) [SID363544525]
- GFP, % of control: 139 (active)
- viability (ATP), % of control: 49.8

Or5p67 (olfactory receptor family 5 subfamily P member 67) [SID363550853]
- GFP, % of control: 102
- viability (ATP), % of control: 66.4

Or5p67 (olfactory receptor family 5 subfamily P member 67) [SID363557402]
- GFP, % of control: 69.8
- viability (ATP), % of control: 49.4

Maged2 (MAGE family member D2) [SID363555271]
- GFP, % of control: 84.5
- viability (ATP), % of control: 73.5

Maged2 (MAGE family member D2) [SID363563932]
- GFP, % of control: 125 (active)
- viability (ATP), % of control: 41.2

Maged2 (MAGE family member D2) [SID363587478]
- GFP, % of control: 124 (active)
- viability (ATP), % of control: 120

Rtraf (RNA transcription, translation and transport factor) [SID363543944]
- GFP, % of control: 50.5
- viability (ATP), % of control: 72.6

Rtraf (RNA transcription, translation and transport factor) [SID363551680]
- GFP, % of control: 49.1
- viability (ATP), % of control: 78.5

Rtraf (RNA transcription, translation and transport factor) [SID363559285]
- GFP, % of control: 56.7
- viability (ATP), % of control: 73.6

Rtraf (RNA transcription, translation and transport factor) [SID363589701]
- GFP, % of control: 98.2
- viability (ATP), % of control: 88.4

Rtraf (RNA transcription, translation and transport factor) [SID363589829]
- GFP, % of control: 123 (active)
- viability (ATP), % of control: 113

Rtraf (RNA transcription, translation and transport factor) [SID363589830]
- GFP, % of control: 103
- viability (ATP), % of control: 86.5

Cst9 (cystatin 9) [SID363555342]
- GFP, % of control: 42.7
- viability (ATP), % of control: 23.1

Cst9 (cystatin 9) [SID363564003]
- GFP, % of control: 67.7
- viability (ATP), % of control: 63.3

Cst9 (cystatin 9) [SID363587549]
- GFP, % of control: 88.7
- viability (ATP), % of control: 88.8

Csgalnact1 (chondroitin sulfate N-acetylgalactosaminyltransferase 1) [SID363568772]
- GFP, % of control: 30.9
- viability (ATP), % of control: 44.7

Csgalnact1 (chondroitin sulfate N-acetylgalactosaminyltransferase 1) [SID363576164]
- GFP, % of control: 81.4
- viability (ATP), % of control: 83.4

Csgalnact1 (chondroitin sulfate N-acetylgalactosaminyltransferase 1) [SID363578980]
- GFP, % of control: 72.7
- viability (ATP), % of control: 78.2

Csn1s1 (casein alpha s1) [SID363550194]
- GFP, % of control: 92.5
- viability (ATP), % of control: 97.6

Csn1s1 (casein alpha s1) [SID363564703]
- GFP, % of control: 51.9
- viability (ATP), % of control: 67.4

Csn1s1 (casein alpha s1) [SID363588248]
- GFP, % of control: 60.1
- viability (ATP), % of control: 112

Cyp2d12 (cytochrome P450, family 2, subfamily d, polypeptide 12) [SID363544270]
- GFP, % of control: 164 (active)
- viability (ATP), % of control: 63.3

Cyp2d12 (cytochrome P450, family 2, subfamily d, polypeptide 12) [SID363550598]
- GFP, % of control: 53.5
- viability (ATP), % of control: 79

Cyp2d12 (cytochrome P450, family 2, subfamily d, polypeptide 12) [SID363557147]
- GFP, % of control: 71
- viability (ATP), % of control: 52.7

Cep55 (centrosomal protein 55) [SID363540800]
- GFP, % of control: 116
- viability (ATP), % of control: 122

Cep55 (centrosomal protein 55) [SID363543251]
- GFP, % of control: 134 (active)
- viability (ATP), % of control: 119

Cep55 (centrosomal protein 55) [SID363552744]
- GFP, % of control: 51.3
- viability (ATP), % of control: 44.3

Or51a24 (olfactory receptor family 51 subfamily A member 24) [SID363554162]
- GFP, % of control: 98.7
- viability (ATP), % of control: 75.9

Or51a24 (olfactory receptor family 51 subfamily A member 24) [SID363567609]
- GFP, % of control: 73.6
- viability (ATP), % of control: 72.3

Or51a24 (olfactory receptor family 51 subfamily A member 24) [SID363584966]
- GFP, % of control: 47.8
- viability (ATP), % of control: 70.7

Paral1 (PPARG activating RBM14 associated lncRNA 1) [SID363547180]
- GFP, % of control: 36.7
- viability (ATP), % of control: 54.9

Paral1 (PPARG activating RBM14 associated lncRNA 1) [SID363549992]
- GFP, % of control: 67.3
- viability (ATP), % of control: 79.1

Paral1 (PPARG activating RBM14 associated lncRNA 1) [SID363588046]
- GFP, % of control: 107
- viability (ATP), % of control: 102

Hsbp1 (heat shock factor binding protein 1) [SID363540442]
- GFP, % of control: 48.6
- viability (ATP), % of control: 55.5

Hsbp1 (heat shock factor binding protein 1) [SID363542194]
- GFP, % of control: 111
- viability (ATP), % of control: 80.6

Hsbp1 (heat shock factor binding protein 1) [SID363567110]
- GFP, % of control: 108
- viability (ATP), % of control: 95

Heatr5a (HEAT repeat containing 5A) [SID363539580]
- GFP, % of control: 65.1
- viability (ATP), % of control: 88.2

Heatr5a (HEAT repeat containing 5A) [SID363560881]
- GFP, % of control: 79.3
- viability (ATP), % of control: 88

Heatr5a (HEAT repeat containing 5A) [SID363564971]
- GFP, % of control: 73.7
- viability (ATP), % of control: 72

Ear10 (eosinophil-associated, ribonuclease A family, member 10) [SID363545696]
- GFP, % of control: 95.5
- viability (ATP), % of control: 87.5

Ear10 (eosinophil-associated, ribonuclease A family, member 10) [SID363549209]
- GFP, % of control: 78.1
- viability (ATP), % of control: 100

Ear10 (eosinophil-associated, ribonuclease A family, member 10) [SID363563015]
- GFP, % of control: 54.4
- viability (ATP), % of control: 45.7

Or5g27 (olfactory receptor family 5 subfamily G member 27) [SID363544841]
- GFP, % of control: 141 (active)
- viability (ATP), % of control: 148

Or5g27 (olfactory receptor family 5 subfamily G member 27) [SID363551169]
- GFP, % of control: 84.6
- viability (ATP), % of control: 108

Or5g27 (olfactory receptor family 5 subfamily G member 27) [SID363557718]
- GFP, % of control: 45.4
- viability (ATP), % of control: 71.1

Adh4 (alcohol dehydrogenase 4 (class II), pi polypeptide) [SID363574946]
- GFP, % of control: 56.2
- viability (ATP), % of control: 54.9

Adh4 (alcohol dehydrogenase 4 (class II), pi polypeptide) [SID363580578]
- GFP, % of control: 80.4
- viability (ATP), % of control: 72.8

Adh4 (alcohol dehydrogenase 4 (class II), pi polypeptide) [SID363582690]
- GFP, % of control: 74.4
- viability (ATP), % of control: 78.5

Pabir3 (PABIR family member 3) [SID363542411]
- GFP, % of control: 98.5
- viability (ATP), % of control: 91.2

Pabir3 (PABIR family member 3) [SID363551902]
- GFP, % of control: 71.9
- viability (ATP), % of control: 59.1

Pabir3 (PABIR family member 3) [SID363559507]
- GFP, % of control: 103
- viability (ATP), % of control: 75

Inip (INTS3 and NABP interacting protein) [SID363540661]
- GFP, % of control: 92.8
- viability (ATP), % of control: 78.1

Inip (INTS3 and NABP interacting protein) [SID363543112]
- GFP, % of control: 85.5
- viability (ATP), % of control: 59.6

Inip (INTS3 and NABP interacting protein) [SID363552605]
- GFP, % of control: 95.6
- viability (ATP), % of control: 77.3

Taken from above.
Paral1 (PPARG activating RBM14 associated lncRNA 1) [SID363547180], viability (ATP), % of control: 54.9
Result for Rtraf (RNA transcription, translation and transport factor) [SID363559285] in “viability (ATP), % of control”: 73.6
Or5g27 (olfactory receptor family 5 subfamily G member 27) [SID363544841], viability (ATP), % of control → 148 (active)
Result for Heatr5a (HEAT repeat containing 5A) [SID363564971] under “viability (ATP), % of control”: 72
Result for Maged2 (MAGE family member D2) [SID363563932] under “viability (ATP), % of control”: 41.2 (active)
Cst9 (cystatin 9) [SID363587549], GFP, % of control: 88.7
